Values from PubChem BioAssay AID743121 (NCATS, 2013).
Aim: 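Knock-downs that sensitise breast cancer cells to camptothecin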 (primary screen). Cells: MDA-MB-231 cells, a human breast cancer line. Reagent: single siRNA against human genes, 20 nM siRNA (0.8 pmol per well). Time to read-out: 120 h (drug added 48 h after transfection, read 72 h later). Challenge: camptothecin 20 nM (about EC30) for 72 h; vehicle 0.1% DMSO in parallel plates. Measured: 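CellTiter-Glo ATP signal, scaled to control siRNA as percent viability; sensitisation given as log2 of untreated divided by camptothecin-treated viability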. Scale: log2 vehicle/camptothecin viability: higher = stronger sensitisation to camptothecin; viability with camptothecin: higher = more viable cells. Call rule: 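Active genes have an RSA gene-level p-value below 0.001, computed from the ratios of their separate siRNAs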.
The whole screen tested about 26,000 reagents; below is a random part of them. 167 of all reagents (0.63%) were called active. 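Calls are per gene from RSA p-values that are not deposited; an individual active-marked siRNA can sensitise only weakly.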 Reagents against one gene are numbered here. Not all columns of the deposit are shown.

The first 3 entries as a preview:
{"gene symbol": "CYSLTR2", "reagent": 1, "log2 vehicle/camptothecin viability": -0.414, "viability with camptothecin (% of control)": 118, "Outcome": "inactive"}
{"gene symbol": "CYSLTR2", "reagent": 2, "log2 vehicle/camptothecin viability": -0.147, "viability with camptothecin (% of control)": 68.6, "Outcome": "inactive"}
{"gene symbol": "CYSLTR2", "reagent": 3, "log2 vehicle/camptothecin viability": -0.226, "viability with camptothecin (% of control)": 116, "Outcome": "inactive"}

Results, repeating the preview:
{"gene symbol": "CYSLTR2", "reagent": 1, "log2 vehicle/camptothecin viability": -0.414, "viability with camptothecin (% of control)": 118, "Outcome": "inactive"}
{"gene symbol": "CYSLTR2", "reagent": 2, "log2 vehicle/camptothecin viability": -0.147, "viability with camptothecin (% of control)": 68.6, "Outcome": "inactive"}
{"gene symbol": "CYSLTR2", "reagent": 3, "log2 vehicle/camptothecin viability": -0.226, "viability with camptothecin (% of control)": 116, "Outcome": "inactive"}
{"gene symbol": "CYSLTR2", "reagent": 4, "log2 vehicle/camptothecin viability": -0.152, "viability with camptothecin (% of control)": 85.9, "Outcome": "inactive"}
{"gene symbol": "ZBED1", "reagent": 1, "log2 vehicle/camptothecin viability": -0.304, "viability with camptothecin (% of control)": 97.8, "Outcome": "inactive"}
{"gene symbol": "ZBED1", "reagent": 2, "log2 vehicle/camptothecin viability": -0.366, "viability with camptothecin (% of control)": 72.8, "Outcome": "inactive"}
{"gene symbol": "ZBED1", "reagent": 3, "log2 vehicle/camptothecin viability": -0.351, "viability with camptothecin (% of control)": 99.4, "Outcome": "inactive"}
{"gene symbol": "ZBED1", "reagent": 4, "log2 vehicle/camptothecin viability": -0.473, "viability with camptothecin (% of control)": 133, "Outcome": "inactive"}
{"gene symbol": "MAP2K7", "reagent": 1, "log2 vehicle/camptothecin viability": -0.54, "viability with camptothecin (% of control)": 49.1, "Outcome": "inactive"}
{"gene symbol": "MAP2K7", "reagent": 2, "log2 vehicle/camptothecin viability": -0.37, "viability with camptothecin (% of control)": 103, "Outcome": "inactive"}
{"gene symbol": "MAP2K7", "reagent": 3, "log2 vehicle/camptothecin viability": -0.309, "viability with camptothecin (% of control)": 72.1, "Outcome": "inactive"}
{"gene symbol": "MAP2K7", "reagent": 4, "log2 vehicle/camptothecin viability": -0.532, "viability with camptothecin (% of control)": 62.8, "Outcome": "inactive"}
{"gene symbol": "MAPRE1", "reagent": 1, "log2 vehicle/camptothecin viability": -0.277, "viability with camptothecin (% of control)": 107, "Outcome": "inactive"}
{"gene symbol": "MAPRE1", "reagent": 2, "log2 vehicle/camptothecin viability": -0.412, "viability with camptothecin (% of control)": 90.1, "Outcome": "inactive"}
{"gene symbol": "MAPRE1", "reagent": 3, "log2 vehicle/camptothecin viability": 0.0436, "viability with camptothecin (% of control)": 83.5, "Outcome": "inactive"}
{"gene symbol": "C1S", "reagent": 1, "log2 vehicle/camptothecin viability": -0.062, "viability with camptothecin (% of control)": 106, "Outcome": "inactive"}
{"gene symbol": "C1S", "reagent": 2, "log2 vehicle/camptothecin viability": 0.0433, "viability with camptothecin (% of control)": 88.6, "Outcome": "inactive"}
{"gene symbol": "C1S", "reagent": 3, "log2 vehicle/camptothecin viability": -0.142, "viability with camptothecin (% of control)": 96.9, "Outcome": "inactive"}
{"gene symbol": "C1S", "reagent": 4, "log2 vehicle/camptothecin viability": 0.775, "viability with camptothecin (% of control)": 17.2, "Outcome": "inactive"}
{"gene symbol": "KLKB1", "reagent": 1, "log2 vehicle/camptothecin viability": -0.369, "viability with camptothecin (% of control)": 81.6, "Outcome": "inactive"}
{"gene symbol": "KLKB1", "reagent": 2, "log2 vehicle/camptothecin viability": -0.121, "viability with camptothecin (% of control)": 91.7, "Outcome": "inactive"}
{"gene symbol": "KLKB1", "reagent": 3, "log2 vehicle/camptothecin viability": -0.398, "viability with camptothecin (% of control)": 76.8, "Outcome": "inactive"}
{"gene symbol": "KLKB1", "reagent": 4, "log2 vehicle/camptothecin viability": -0.305, "viability with camptothecin (% of control)": 56.9, "Outcome": "inactive"}
{"gene symbol": "XRCC1", "reagent": 1, "log2 vehicle/camptothecin viability": -0.159, "viability with camptothecin (% of control)": 67.4, "Outcome": "inactive"}
{"gene symbol": "XRCC1", "reagent": 2, "log2 vehicle/camptothecin viability": -0.499, "viability with camptothecin (% of control)": 85.9, "Outcome": "inactive"}
{"gene symbol": "XRCC1", "reagent": 3, "log2 vehicle/camptothecin viability": 0.221, "viability with camptothecin (% of control)": 37.4, "Outcome": "inactive"}
{"gene symbol": "XRCC1", "reagent": 4, "log2 vehicle/camptothecin viability": 0.228, "viability with camptothecin (% of control)": 22.5, "Outcome": "inactive"}
